From patent publication US20240199759A1
Where a chain is given by its changes, count along the chain named. Results are given in words; binding and its absence hold for the method and conditions named. Some results given as binding are weak or reduced against the parent protein; the word gives no strength. Values belong to the binder of their own block, whether it stands above or below them.

Chains of the proteins cited; added tags and fusions are not shown. Lines headed by an entry give the natural chain unless they say otherwise; changes in a name come on top. Residues count along the entry.
UniProt O76036: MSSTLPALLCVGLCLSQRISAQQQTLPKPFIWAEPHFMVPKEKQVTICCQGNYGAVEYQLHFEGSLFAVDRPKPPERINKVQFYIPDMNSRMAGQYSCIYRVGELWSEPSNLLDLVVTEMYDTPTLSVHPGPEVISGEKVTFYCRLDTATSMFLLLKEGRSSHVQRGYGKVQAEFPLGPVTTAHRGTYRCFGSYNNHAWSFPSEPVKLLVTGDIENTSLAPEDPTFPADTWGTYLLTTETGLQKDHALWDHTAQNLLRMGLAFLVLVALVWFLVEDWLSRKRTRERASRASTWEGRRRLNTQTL
human NKp46 expressed on cells (BW NKp46 transfectants; primary activated human NK cells): residues 22-304 of O76036
human NKp46 (form in the assay not stated): residues 22-255 of O76036

What was measured:
[1] = target: human NKp46 expressed on cells (BW NKp46 transfectants; primary activated human NK cells) (human) (UniProt O76036); experiment: staining of BW cells transfected to express NKp46
[2] = target: human NKp46 expressed on cells (BW NKp46 transfectants; primary activated human NK cells) (human) (UniProt O76036); experiment: flow cytometry on primary activated bulk human NK cells, secondary antibody detection
[3] = target: human NKp46 expressed on cells (BW NKp46 transfectants; primary activated human NK cells) (human) (UniProt O76036); experiment: flow cytometry on IL-2 activated primary human NK cells
[4] = target: human NKp46 expressed on cells (BW NKp46 transfectants; primary activated human NK cells) (human) (UniProt O76036); experiment: dose response FACS staining of primary activated NK cells from two donors
[5] = target: human NKp46 expressed on cells (BW NKp46 transfectants; primary activated human NK cells) (human) (UniProt O76036); experiment: flow cytometry dose series on primary activated NK cells of two donors (NK 1, NK 2), αm-647 detection
[6] = target: human NKp46 expressed on cells (BW NKp46 transfectants; primary activated human NK cells) (human) (UniProt O76036); experiment: summary of the flow cytometry assays of Example 1
[7] = target: human NKp46 expressed on cells (BW NKp46 transfectants; primary activated human NK cells) (human) (UniProt O76036); experiment: flow cytometry on BW cells transfected with NKp46 versus parental BW cells, secondary antibody detection
[8] = target: human NKp46 expressed on cells (BW NKp46 transfectants; primary activated human NK cells) (human) (UniProt O76036); experiment: flow cytometry on BW, BW NKp46 and NK Fiji cells, αm-647 detection
[9] = target: human NKp46 (form in the assay not stated) (human) (UniProt O76036); experiment: BIAcore, mAb12 injected as analyte over NKp46
[10] = target: human NKp46 expressed on cells (BW NKp46 transfectants; primary activated human NK cells) (human) (UniProt O76036); experiment: flow cytometry on activated NK cells after incubation with the mAb at 4°C or 37°C, anti-mouse 647 detection
[11] = target: human NKp46 expressed on cells (BW NKp46 transfectants; primary activated human NK cells) (human) (UniProt O76036); experiment: flow cytometry on BW transfectants expressing NKp46
[12] = target: human NKp46 (form in the assay not stated) (human) (UniProt O76036); experiment: BIAcore, mAb9 injected as analyte over NKp46

binding [1]: binds
binding [2]: binds
binding [3]: binds
binding [4]: binds
binding [5]: binds
binding [6]: binds
binding [7]: binds
binding [8]: binds
binding [9]: binds
binding [10]: binds
binding [11]: binds
B1: mouse anti-NKp46 monoclonal antibody 12 (antibody, V domains shown)
VH: EVQLQQSGPELVKPGTSVKISCKTSGYTFTEYSMHWVKQSHGKSLEWFGGISPNSGGTSYNQKFKGKATLTVDKSSSTAYMELRSLTSEDSAVYYCARRDFHSSFDYWGQGTTLTVSS
VL: DIVLTQSPATLSVTPGNSVSLSCRASQSISDYLHWFQQKSHESPRLLIKYASQSISGIPSRFSGSGSGSDFTLSINSVEPEDVGVYYCQNGHSFPLTFGPGTKLELK

binding [12]: binds
B2: mouse anti-NKp46 monoclonal antibody 09 (antibody, V domains shown)
VH: B1 VH
VL: B1 VL with L4M, N17D, S18R
